# This is one part of the list.
# Chains of the proteins cited; added tags and fusions are not shown. Lines headed by an entry give the natural chain unless they say otherwise; changes in a name come on top.
# UniProt Q96BN2: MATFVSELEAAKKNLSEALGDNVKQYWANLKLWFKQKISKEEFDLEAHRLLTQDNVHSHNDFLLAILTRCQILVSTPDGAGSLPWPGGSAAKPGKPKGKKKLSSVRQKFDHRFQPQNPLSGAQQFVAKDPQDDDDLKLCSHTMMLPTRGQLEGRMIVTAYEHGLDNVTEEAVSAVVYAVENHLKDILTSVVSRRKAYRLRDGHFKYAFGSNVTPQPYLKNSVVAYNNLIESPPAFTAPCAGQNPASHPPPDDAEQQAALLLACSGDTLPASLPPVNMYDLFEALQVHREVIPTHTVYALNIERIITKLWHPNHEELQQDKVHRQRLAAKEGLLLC
# UniProt P27105: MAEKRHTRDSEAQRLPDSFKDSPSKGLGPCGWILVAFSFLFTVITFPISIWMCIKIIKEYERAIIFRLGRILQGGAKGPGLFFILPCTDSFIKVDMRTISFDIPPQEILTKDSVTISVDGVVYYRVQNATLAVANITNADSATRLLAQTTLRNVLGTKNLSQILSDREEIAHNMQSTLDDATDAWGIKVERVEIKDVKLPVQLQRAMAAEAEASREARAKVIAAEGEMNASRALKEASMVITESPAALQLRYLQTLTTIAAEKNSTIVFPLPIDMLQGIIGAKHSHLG
# UniProt P53597: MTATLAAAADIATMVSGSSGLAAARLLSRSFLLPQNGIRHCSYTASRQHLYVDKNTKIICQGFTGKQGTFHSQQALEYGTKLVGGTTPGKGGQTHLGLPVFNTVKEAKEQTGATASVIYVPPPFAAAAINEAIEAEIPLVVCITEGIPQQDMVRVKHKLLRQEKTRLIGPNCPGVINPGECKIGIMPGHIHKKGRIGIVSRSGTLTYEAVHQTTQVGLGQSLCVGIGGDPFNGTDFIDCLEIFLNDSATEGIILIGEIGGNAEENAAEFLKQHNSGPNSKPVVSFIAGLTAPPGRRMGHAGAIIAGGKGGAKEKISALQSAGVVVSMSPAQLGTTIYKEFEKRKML
# UniProt Q15022: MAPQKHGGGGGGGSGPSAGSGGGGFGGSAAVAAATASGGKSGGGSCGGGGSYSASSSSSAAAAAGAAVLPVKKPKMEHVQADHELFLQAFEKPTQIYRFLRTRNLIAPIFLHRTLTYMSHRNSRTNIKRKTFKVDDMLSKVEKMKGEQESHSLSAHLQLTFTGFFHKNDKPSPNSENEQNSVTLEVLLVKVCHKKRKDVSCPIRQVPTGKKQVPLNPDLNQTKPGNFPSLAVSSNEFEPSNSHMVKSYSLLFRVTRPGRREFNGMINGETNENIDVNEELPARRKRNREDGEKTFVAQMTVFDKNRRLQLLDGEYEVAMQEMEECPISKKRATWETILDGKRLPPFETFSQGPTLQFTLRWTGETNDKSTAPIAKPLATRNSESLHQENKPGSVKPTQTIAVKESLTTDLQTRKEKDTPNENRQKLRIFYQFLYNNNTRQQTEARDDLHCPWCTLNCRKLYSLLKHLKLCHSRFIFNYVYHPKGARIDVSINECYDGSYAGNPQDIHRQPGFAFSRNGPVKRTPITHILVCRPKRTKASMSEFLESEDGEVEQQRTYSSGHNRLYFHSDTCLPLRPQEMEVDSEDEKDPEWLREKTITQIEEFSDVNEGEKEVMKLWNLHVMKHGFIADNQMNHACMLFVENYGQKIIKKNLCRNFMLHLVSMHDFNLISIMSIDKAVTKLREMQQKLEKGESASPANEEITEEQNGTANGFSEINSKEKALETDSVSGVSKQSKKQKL
# UniProt P55854, whole entry, looked up: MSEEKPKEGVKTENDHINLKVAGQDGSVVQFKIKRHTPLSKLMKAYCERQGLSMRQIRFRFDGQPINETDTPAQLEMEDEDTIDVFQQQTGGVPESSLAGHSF
# UniProt Q8NHG7: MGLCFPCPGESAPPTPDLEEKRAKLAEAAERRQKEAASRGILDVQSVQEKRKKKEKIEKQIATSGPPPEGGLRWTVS
# UniProt Q86TM6, whole entry, looked up: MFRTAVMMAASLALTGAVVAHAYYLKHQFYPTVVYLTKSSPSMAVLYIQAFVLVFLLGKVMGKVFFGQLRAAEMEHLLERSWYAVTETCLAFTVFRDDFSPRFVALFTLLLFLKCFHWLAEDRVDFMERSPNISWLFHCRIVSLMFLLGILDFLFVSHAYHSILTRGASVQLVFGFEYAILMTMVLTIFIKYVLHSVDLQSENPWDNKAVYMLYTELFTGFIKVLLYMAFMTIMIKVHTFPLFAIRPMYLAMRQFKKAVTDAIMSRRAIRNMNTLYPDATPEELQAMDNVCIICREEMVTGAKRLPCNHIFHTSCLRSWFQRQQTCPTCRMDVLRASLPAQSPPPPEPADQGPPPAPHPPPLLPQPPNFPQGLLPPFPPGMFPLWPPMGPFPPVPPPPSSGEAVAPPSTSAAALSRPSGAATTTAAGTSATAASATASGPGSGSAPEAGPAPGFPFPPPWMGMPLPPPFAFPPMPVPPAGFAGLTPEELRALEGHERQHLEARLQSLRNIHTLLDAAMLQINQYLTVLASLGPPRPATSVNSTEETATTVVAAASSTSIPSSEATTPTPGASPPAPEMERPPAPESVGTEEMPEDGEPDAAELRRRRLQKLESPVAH
# UniProt P61764, whole entry, looked up: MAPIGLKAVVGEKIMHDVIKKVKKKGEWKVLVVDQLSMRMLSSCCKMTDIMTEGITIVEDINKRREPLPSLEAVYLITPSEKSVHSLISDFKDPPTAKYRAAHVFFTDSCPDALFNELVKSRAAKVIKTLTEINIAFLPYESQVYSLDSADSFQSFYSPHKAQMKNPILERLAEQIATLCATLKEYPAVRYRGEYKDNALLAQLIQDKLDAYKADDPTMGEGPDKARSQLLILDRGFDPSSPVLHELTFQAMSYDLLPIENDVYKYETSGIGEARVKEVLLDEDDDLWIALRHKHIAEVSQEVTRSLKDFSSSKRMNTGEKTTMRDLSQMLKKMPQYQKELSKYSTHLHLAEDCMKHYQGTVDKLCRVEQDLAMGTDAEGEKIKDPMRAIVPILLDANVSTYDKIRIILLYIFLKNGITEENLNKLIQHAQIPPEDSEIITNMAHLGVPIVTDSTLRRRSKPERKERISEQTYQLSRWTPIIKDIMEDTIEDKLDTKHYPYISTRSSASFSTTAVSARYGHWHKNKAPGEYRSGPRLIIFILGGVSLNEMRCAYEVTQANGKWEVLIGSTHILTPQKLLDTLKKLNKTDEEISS
# UniProt Q9ULQ0: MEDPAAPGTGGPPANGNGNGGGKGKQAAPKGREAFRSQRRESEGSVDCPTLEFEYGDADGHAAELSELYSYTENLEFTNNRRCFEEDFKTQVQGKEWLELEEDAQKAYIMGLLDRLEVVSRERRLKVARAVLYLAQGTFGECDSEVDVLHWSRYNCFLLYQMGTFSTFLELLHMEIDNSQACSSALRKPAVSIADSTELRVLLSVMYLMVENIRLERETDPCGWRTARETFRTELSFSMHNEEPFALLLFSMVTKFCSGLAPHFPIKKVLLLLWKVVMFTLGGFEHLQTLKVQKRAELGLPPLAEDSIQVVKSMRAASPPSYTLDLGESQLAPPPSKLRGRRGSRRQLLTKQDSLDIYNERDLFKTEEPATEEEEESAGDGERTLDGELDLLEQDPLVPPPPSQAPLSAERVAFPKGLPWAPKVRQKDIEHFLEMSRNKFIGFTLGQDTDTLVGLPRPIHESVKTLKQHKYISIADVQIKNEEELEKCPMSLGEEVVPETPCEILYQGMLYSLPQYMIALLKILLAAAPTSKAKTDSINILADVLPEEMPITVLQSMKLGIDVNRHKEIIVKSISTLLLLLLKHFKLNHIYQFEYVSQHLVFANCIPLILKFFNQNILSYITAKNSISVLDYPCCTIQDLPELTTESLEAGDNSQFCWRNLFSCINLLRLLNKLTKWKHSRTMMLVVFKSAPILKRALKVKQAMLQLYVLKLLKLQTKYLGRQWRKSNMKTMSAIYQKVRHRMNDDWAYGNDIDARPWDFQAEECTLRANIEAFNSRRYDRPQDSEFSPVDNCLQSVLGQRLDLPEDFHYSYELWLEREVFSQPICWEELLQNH
# UniProt O15260: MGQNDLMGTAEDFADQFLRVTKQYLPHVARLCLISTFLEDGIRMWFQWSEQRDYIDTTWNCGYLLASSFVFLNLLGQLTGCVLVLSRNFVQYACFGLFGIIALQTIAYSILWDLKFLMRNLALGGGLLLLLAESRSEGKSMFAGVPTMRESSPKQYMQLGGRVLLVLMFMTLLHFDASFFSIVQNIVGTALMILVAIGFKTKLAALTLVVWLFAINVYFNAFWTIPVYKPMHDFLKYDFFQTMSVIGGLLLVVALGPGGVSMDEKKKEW
# UniProt Q9Y5B9, whole entry, looked up: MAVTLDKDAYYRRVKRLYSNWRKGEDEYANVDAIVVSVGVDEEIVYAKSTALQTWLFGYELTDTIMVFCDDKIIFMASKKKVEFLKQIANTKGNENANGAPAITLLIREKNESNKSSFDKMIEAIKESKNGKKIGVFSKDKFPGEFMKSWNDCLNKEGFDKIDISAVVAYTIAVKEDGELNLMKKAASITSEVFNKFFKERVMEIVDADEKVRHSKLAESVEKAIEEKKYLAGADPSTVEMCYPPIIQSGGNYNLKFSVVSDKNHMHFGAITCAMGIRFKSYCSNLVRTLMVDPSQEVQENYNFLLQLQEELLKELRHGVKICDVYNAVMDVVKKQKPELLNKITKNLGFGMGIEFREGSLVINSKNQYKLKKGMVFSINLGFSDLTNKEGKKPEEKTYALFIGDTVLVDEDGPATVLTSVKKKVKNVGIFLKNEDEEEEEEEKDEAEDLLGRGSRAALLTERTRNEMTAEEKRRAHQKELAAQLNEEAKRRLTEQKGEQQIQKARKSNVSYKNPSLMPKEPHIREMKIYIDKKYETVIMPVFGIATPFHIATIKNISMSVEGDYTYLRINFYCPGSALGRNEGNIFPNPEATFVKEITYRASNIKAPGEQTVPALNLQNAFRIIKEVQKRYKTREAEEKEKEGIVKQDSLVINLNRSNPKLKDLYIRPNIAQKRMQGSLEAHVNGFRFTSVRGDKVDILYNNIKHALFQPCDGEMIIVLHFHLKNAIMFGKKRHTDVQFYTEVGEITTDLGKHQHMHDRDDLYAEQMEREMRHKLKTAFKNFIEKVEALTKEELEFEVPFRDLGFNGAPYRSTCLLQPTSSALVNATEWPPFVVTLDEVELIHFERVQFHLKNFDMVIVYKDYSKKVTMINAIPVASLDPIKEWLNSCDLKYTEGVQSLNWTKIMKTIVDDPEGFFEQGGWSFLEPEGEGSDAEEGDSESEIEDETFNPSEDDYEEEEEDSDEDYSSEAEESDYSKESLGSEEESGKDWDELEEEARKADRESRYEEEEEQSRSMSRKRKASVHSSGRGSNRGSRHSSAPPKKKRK
# UniProt Q96C24: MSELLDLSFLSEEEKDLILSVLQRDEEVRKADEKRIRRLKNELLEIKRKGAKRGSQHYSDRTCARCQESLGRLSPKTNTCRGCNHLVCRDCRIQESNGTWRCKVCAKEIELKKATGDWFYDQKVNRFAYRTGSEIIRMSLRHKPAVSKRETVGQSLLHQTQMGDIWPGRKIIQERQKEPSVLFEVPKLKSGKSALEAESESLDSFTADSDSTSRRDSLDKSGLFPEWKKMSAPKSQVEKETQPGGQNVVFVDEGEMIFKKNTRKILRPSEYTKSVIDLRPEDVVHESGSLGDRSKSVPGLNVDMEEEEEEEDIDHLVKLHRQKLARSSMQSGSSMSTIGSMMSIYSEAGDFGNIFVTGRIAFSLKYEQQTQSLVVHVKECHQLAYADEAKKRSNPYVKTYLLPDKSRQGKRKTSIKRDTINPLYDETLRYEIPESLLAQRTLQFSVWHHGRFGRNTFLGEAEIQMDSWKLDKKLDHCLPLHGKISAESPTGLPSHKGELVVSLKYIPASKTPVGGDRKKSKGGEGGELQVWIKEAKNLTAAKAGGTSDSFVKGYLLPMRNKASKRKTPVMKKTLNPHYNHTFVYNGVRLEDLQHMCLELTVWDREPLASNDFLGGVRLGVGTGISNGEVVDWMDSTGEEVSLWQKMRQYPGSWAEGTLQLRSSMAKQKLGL
# UniProt O15400: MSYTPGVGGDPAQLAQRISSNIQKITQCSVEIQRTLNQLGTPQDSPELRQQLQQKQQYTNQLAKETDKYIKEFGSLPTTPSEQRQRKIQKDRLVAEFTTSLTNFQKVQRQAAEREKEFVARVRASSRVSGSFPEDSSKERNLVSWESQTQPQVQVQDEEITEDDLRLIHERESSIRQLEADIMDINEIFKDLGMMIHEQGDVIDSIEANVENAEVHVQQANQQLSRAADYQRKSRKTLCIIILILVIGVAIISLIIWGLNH
# UniProt P56962: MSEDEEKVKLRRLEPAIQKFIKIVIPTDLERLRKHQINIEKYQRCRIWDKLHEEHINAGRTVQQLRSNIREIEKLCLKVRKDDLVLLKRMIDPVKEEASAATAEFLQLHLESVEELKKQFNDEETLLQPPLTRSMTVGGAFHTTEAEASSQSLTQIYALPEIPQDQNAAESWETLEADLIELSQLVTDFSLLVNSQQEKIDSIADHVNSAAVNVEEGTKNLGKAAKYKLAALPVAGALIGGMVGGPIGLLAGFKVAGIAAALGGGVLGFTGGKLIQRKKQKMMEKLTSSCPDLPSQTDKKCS
# Compound: CS(=O)(=O)CCNCc1ccc(-c2ccc3ncnc(Nc4ccc(OCc5cccc(F)c5)c(Cl)c4)c3c2)o1 [lapatinib]
# Experiment: log2 fold change, soluble protein after heating vs DMSO (PISA); higher = thermal stabilisation; K562 lysate, 10 uM; active = over 0.2 and 3.5 SD of the protein, either way, in both replicates (recomputed)
# Outline: (§1)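 The values are log-two fold changes in thermal stability compared with solvent controls and come from duplicates. They were obtained by TMTpro 16plex LC-MS/MS, with channel sums equalised, on the supernatant after 21,000xg for 90 min. That supernatant came from crude K562 extract at 1 mg/mL protein treated with 10 μM compound for 30 min, heated for 3 min across 48°C-58°C, pooled and brought to 0.5% NP-40 at 4°C.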
row,Target,log2 fold change
1,SUCLA2 (UniProt Q9P2R7),inactive: 0.013
2,TAB1 (UniProt Q15750),inactive: -0.013
3,STX5 (UniProt Q13190),inactive: -0.014
4,SYNGR2 (UniProt O43760),inactive: 0.02
5,STMN2 isoform 2 (UniProt Q93045),inactive: -0.07
6,TADA1 (UniProt Q96BN2),inactive: 0.024
7,STUB1 (UniProt Q9UNE7),inactive: -0.01
8,TAF10 (UniProt Q12962),inactive: 0.008
9,SUMF2 (UniProt Q8NBJ7),inactive: 0.038
10,STOM (UniProt P27105),inactive: -0.023
11,SURF1 (UniProt Q15526),inactive: -0.099
12,SYNCRIP (UniProt O60506),inactive: -0.007
13,STRN3 (UniProt Q13033),inactive: 0.006
14,STX16 isoform 2 (UniProt O14662),inactive: 0.005
15,STK11IP (UniProt Q8N1F8),inactive: 0.022
16,SUCLG1 (UniProt P53597),inactive: 0
17,STK39 (UniProt Q9UEW8),inactive: 0.011
18,STRAP isoform 2 (UniProt Q9Y3F4),inactive: -0.021
19,SUZ12 (UniProt Q15022),inactive: 0.015
20,SUMO3 isoform 2 (UniProt P55854),inactive: -0.013

row,Target,log2 fold change
1,TACC3 (UniProt Q9Y6A5),inactive: 0.001
2,SYNE2 isoform 2 (UniProt Q8WXH0),inactive: -0.082
3,SVIP (UniProt Q8NHG7),inactive: 0.005
4,STK38 (UniProt Q15208),inactive: -0.024
5,SYVN1 (UniProt Q86TM6),inactive: -0.008
6,STK25 (UniProt O00506),inactive: -0.058
7,STK26 (UniProt Q9P289),inactive: -0.011
8,STT3A (UniProt P46977),inactive: -0.016
9,STRADA (UniProt Q7RTN6),inactive: 0.03
10,STXBP1 (UniProt P61764),inactive: -0.009
11,STRIP2 (UniProt Q9ULQ0),inactive: 0.036
12,SURF4 (UniProt O15260),inactive: -0.063
13,SUPT16H (UniProt Q9Y5B9),inactive: 0.01
14,STRN4 isoform 3 (UniProt Q9NRL3),inactive: 0.049
15,SYTL4 (UniProt Q96C24),inactive: -0.043
16,STX8 (UniProt Q9UNK0),inactive: -0.022
17,SUOX (UniProt P51687),inactive: -0.011
18,STX7 (UniProt O15400),inactive: -0.016
19,STX17 (UniProt P56962),inactive: -0.013

# Compound: CS(=O)(=O)N1CCN(Cc2cc3nc(-c4cccc5[nH]ncc45)nc(N4CCOCC4)c3s2)CC1 [pictilisib]
# Experiment: as above
# Outline: as §1
row,Target,log2 fold change
1,SUCLA2 (UniProt Q9P2R7),inactive: -0.047
2,TAB1 (UniProt Q15750),inactive: 0.011
3,STX5 (UniProt Q13190),inactive: -0.064
4,SYNGR2 (UniProt O43760),inactive: 0.056
5,STMN2 isoform 2 (UniProt Q93045),inactive: 0.026
6,TADA1 (UniProt Q96BN2),inactive: -0.066
7,STUB1 (UniProt Q9UNE7),inactive: -0.012
8,TAF10 (UniProt Q12962),inactive: -0.073
9,SUMF2 (UniProt Q8NBJ7),inactive: 0.003
10,STOM (UniProt P27105),inactive: -0.027
11,SURF1 (UniProt Q15526),inactive: -0.035
12,SYNCRIP (UniProt O60506),inactive: 0.007
13,STRN3 (UniProt Q13033),inactive: -0.01
14,STX16 isoform 2 (UniProt O14662),inactive: -0.036
15,STK11IP (UniProt Q8N1F8),inactive: 0.012
16,SUCLG1 (UniProt P53597),inactive: -0.038
17,STK39 (UniProt Q9UEW8),inactive: -0.038
18,STRAP isoform 2 (UniProt Q9Y3F4),inactive: -0.005
19,SUZ12 (UniProt Q15022),inactive: 0.043
20,SUMO3 isoform 2 (UniProt P55854),inactive: -0.012

row,Target,log2 fold change
1,TACC3 (UniProt Q9Y6A5),inactive: 0.007
2,SYNE2 isoform 2 (UniProt Q8WXH0),inactive: -0.103
3,SVIP (UniProt Q8NHG7),inactive: -0.03
4,STK38 (UniProt Q15208),inactive: 0.061
5,SYVN1 (UniProt Q86TM6),inactive: -0.05
6,STK25 (UniProt O00506),inactive: -0.041
7,STK26 (UniProt Q9P289),inactive: 0.024
8,STT3A (UniProt P46977),inactive: -0.001
9,STRADA (UniProt Q7RTN6),inactive: 0.009
10,STXBP1 (UniProt P61764),inactive: 0.002
11,STRIP2 (UniProt Q9ULQ0),inactive: -0.015
12,SURF4 (UniProt O15260),inactive: -0.016
13,SUPT16H (UniProt Q9Y5B9),inactive: -0.013
14,STRN4 isoform 3 (UniProt Q9NRL3),inactive: 0.009
15,SYTL4 (UniProt Q96C24),inactive: 0.125
16,STX8 (UniProt Q9UNK0),inactive: -0.083
17,SUOX (UniProt P51687),inactive: -0.009
18,STX7 (UniProt O15400),inactive: -0.015
19,STX17 (UniProt P56962),inactive: -0.016

# — the supplement of paper PMC10849652
